The list shows a part of the results. Shown are side measurements of this screen, not its main read-out; they come without a call. Most of these compounds were active or inconclusive in the main read-out, so they are no random draw. Potencies come from curve fits of mixed quality, noted in brackets.
Experiment: qHTS Assay to Find Inhibitors of Chronic Active B-Cell Receptor Signaling
Conditions: ABC-DLBCL IkBa-CBG/CBR reporter, luminescence ratio (green luciferase fused to IkBa over red control in TMD8 lymphoma cells), 4 h
Outline: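 Concentration-response series (up to 46 uM) were applied to TMD8 dual-reporter cells for 4 h at 37C with doxycycline. Green/red ratio, after filter-overlap correction, defined %Activity; red signal alone was normalised to basal cells and zero luminescence.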

[1] = measured here: CBR red luminescence, cell number
[2] = measured here: IkBa-CBG green luminescence

Row | SMILES | AC50 [1] | AC50 [2]
1 | COc1cccc(NC(=O)[C@H](Cc2ccccc2)NC(=O)[C@@H]2Cc3ccccc3CN2)c1 | 8.91 µM [falling, partial curve, poor fit] | –
2 | N#Cc1c(NC(=S)NC(=O)c2ccccc2)sc2c1CCCC2 | 0.206 µM [rising, full curve, poor fit] | –
3 | Cc1cccc(-c2noc(CCCC(=O)NC3CCCCC3)n2)c1 | 4.47 µM [rising, full curve] | 5.62 µM [rising, partial curve, poor fit]
4 | COc1ccc(NC(=O)COC(=O)c2ccc(S(=O)(=O)N3CCCC3)cc2)cc1OC | 2.31 µM [falling, partial curve] | –
5 | O=[N+]([O-])c1cccc(/C([O-])=C(/C(=S)Nc2cccc3ccccc23)[n+]2ccccc2)c1 | 1.64 µM [falling, partial curve, poor fit] | –
6 | CN(C)CCN(C(=O)/C=C/c1cccs1)c1nc2c(F)cc(F)cc2s1 | 20.6 µM [falling, single point] | –
7 | COc1ccc(C)cc1NC(=O)Nc1ccncc1 | 14.1 µM [rising, single point] | –
8 | CCNC(=O)/C(C#N)=C/c1c(N2CCN(C)CC2)nc2c(C)cccn2c1=O | 20 µM [falling, single point] | –
9 | CCS(=O)(=O)c1ccc(C(=O)Nc2ccccc2)c(Cl)c1Cl | 11.2 µM [falling, partial curve, poor fit] | –
10 | C[C@H]1O[C@@H](O[C@H]2CC[C@@]3(C)C(CC[C@]4(C)C3C=C[C@]35OC[C@@]6(CCC(C)(C)C[C@H]63)[C@@H](O)C[C@]54C)[C@]2(C)CO)[C@H](O)[C@@H](O[C@@H]2O[C@H](CO)[C@@H](O)[C@H](O)[C@H]2O)[C@H]1O (stereo not given in full) | 20.6 µM [rising, single point] | –
11 | O=C(c1cccs1)C1C(c2ccc(Br)cc2)NC(=S)NC1(O)C(F)(F)F (stereo not given) | 18.4 µM [falling, partial curve, poor fit] | –
12 | CCOc1ccc(/C=C/c2c([N+](=O)[O-])c(=O)n(C)c(=O)n2C)cc1 | 35.5 µM [falling, single point] | –
13 | CC1CC(C)CN(c2ncc3c(n2)CC(c2ccccc2Cl)CC3=O)C1 (stereo not given) | 1.84 µM [rising, partial curve, poor fit] | –
14 | COc1ccc(-n2c(SCC(=O)Nc3cc(C(=O)O)ccc3C)nc3ccccc3c2=O)cc1Cl | 35.5 µM [falling, single point] | –
15 | Cc1cc(C)cc(NC(=O)Cc2ccc(S(=O)(=O)N3CCCC3)s2)c1 | 0.146 µM [rising, full curve, poor fit] | –
16 | N#CCCN1CCN(S(=O)(=O)c2ccc(S(=O)(=O)NCc3ccccc3)cc2)CC1 | 18.4 µM [rising, single point] | –
17 | O=C(Nc1cccc(Cl)c1)Nc1ccccc1C(=O)O | 0.891 µM [falling, full curve] | –
18 | CC1CCC(NC(=O)Cn2cc3c(n2)CCCC3)CC1 (stereo not given) | 0.517 µM [falling, partial curve, poor fit] | –
19 | COc1ccc([N+](=O)[O-])cc1NC(=O)COC(=O)c1ccccn1 | 5.62 µM [rising, single point] | –
20 | O=C(N/N=C/c1ccccc1F)c1ccccc1OCc1ccccc1 | 2.51 µM [falling, partial curve, poor fit] | –
21 | O=C(CSc1nc2ccccc2o1)NCc1ccc2c(c1)OCO2 | 4.11 µM [falling, full curve, poor fit] | –

Row | SMILES | AC50 [1] | AC50 [2]
22 | Fc1ccc(-c2csc(Nc3ccccn3)n2)cc1 | 3.16 µM [falling, partial curve] | –
23 | O=c1nc(SCc2c(F)cccc2Cl)nc(-c2ccc(Cl)cc2)[nH]1 | 1.41 µM [rising, partial curve, poor fit] | –
24 | CCCSC(=S)c1c(C)[nH]n(-c2ccccc2)c1=O | 11.2 µM [falling, partial curve] | –
25 | Cc1cc(C)n2[nH]c(=O)c(N=Nc3ccc(S(N)(=O)=O)cc3)c2n1 | 0.126 µM [falling, full curve, poor fit] | –
26 | Cc1c(CC(=O)O)c(=O)oc2c(C)c3occ(-c4ccc(F)cc4)c3cc12 | 35.5 µM [rising, single point] | –
27 | CCOc1ccc(NC(=O)/C(=C\c2ccc(OC(C)=O)c(OC)c2)NC(C)=O)cc1 | 25.9 µM [falling, single point] | –
28 | O=C(Nc1cccnc1)C1CCCN(S(=O)(=O)c2cccc3nsnc23)C1 (stereo not given) | 23.1 µM [falling, single point] | 20.6 µM [rising, partial curve, poor fit]
29 | COc1ccc(-n2ncc3c(NCCCn4ccnc4)ncnc32)cc1 | 3.55 µM [rising, single point] | –
30 | O=C(/C(=C/c1ccc(Cl)cc1)c1nc2ccccc2[nH]1)c1cccs1 | 18.4 µM [falling, partial curve, poor fit] | –
31 | CN(C(=O)COC(=O)c1cccnc1Nc1cccc(C(F)(F)F)c1)C1CCS(=O)(=O)C1 (stereo not given) | 2.59 µM [falling, partial curve] | –
32 | O=C(OCc1cnc(Cl)s1)c1c(F)cccc1F | 14.1 µM [rising, partial curve, poor fit] | –
33 | COc1cc(/C=N/O)ccc1OCc1ccc([N+](=O)[O-])cc1 | 1.84 µM [rising, partial curve, poor fit] | 18.4 µM [falling, partial curve, poor fit]
34 | C/C(=N\NC(=O)c1cc(Cl)ccc1O)c1ccc(Br)s1 | 0.517 µM [falling, full curve] | –
35 | O=[N+]([O-])c1ccc(NC(=S)N2CCc3ccccc3C2)cc1 | 3.66 µM [rising, partial curve, poor fit] | –
36 | C=CCc1cccc2cc(C(=O)NC(C)(C)C)c(=O)oc12 | 29.1 µM [falling, single point] | –
37 | COc1cc(OC)c2c(=O)cc(-c3cccnc3)oc2c1 | 22.4 µM [rising, partial curve, poor fit] | 20 µM [falling, partial curve]
38 | CCOC(=O)N1CCN(c2nc(SC)nc3sc4c(c23)CC(C)(C)OC4)CC1 | 8.2 µM [rising, partial curve, poor fit] | –
39 | Cc1ccc(-c2nnc(Nc3ccccc3)c3ccccc23)cc1S(=O)(=O)NCC1CCCO1 (stereo not given) | 31.6 µM [falling, single point] | –
40 | COc1ccc(NCC(=O)Nc2ccc(Cl)cc2C)c(OC)c1 | 18.4 µM [falling, single point] | –
41 | CCOc1ccc2nc(N3CCOCC3)nc(C)c2c1 | 4.11 µM [rising, full curve, poor fit] | –
42 | C=CCNC(=O)COc1ccc(Oc2ccccc2)cc1 | 35.5 µM [falling, single point] | –

Shown tab-delimited: 17 of the compounds above
Row	SMILES	AC50 [1]	AC50 [2]
26	Cc1c(CC(=O)O)c(=O)oc2c(C)c3occ(-c4ccc(F)cc4)c3cc12	35.5 µM [rising, single point]	–
27	CCOc1ccc(NC(=O)/C(=C\c2ccc(OC(C)=O)c(OC)c2)NC(C)=O)cc1	25.9 µM [falling, single point]	–
28	O=C(Nc1cccnc1)C1CCCN(S(=O)(=O)c2cccc3nsnc23)C1 (stereo not given)	23.1 µM [falling, single point]	20.6 µM [rising, partial curve, poor fit]
29	COc1ccc(-n2ncc3c(NCCCn4ccnc4)ncnc32)cc1	3.55 µM [rising, single point]	–
30	O=C(/C(=C/c1ccc(Cl)cc1)c1nc2ccccc2[nH]1)c1cccs1	18.4 µM [falling, partial curve, poor fit]	–
31	CN(C(=O)COC(=O)c1cccnc1Nc1cccc(C(F)(F)F)c1)C1CCS(=O)(=O)C1 (stereo not given)	2.59 µM [falling, partial curve]	–
32	O=C(OCc1cnc(Cl)s1)c1c(F)cccc1F	14.1 µM [rising, partial curve, poor fit]	–
33	COc1cc(/C=N/O)ccc1OCc1ccc([N+](=O)[O-])cc1	1.84 µM [rising, partial curve, poor fit]	18.4 µM [falling, partial curve, poor fit]
34	C/C(=N\NC(=O)c1cc(Cl)ccc1O)c1ccc(Br)s1	0.517 µM [falling, full curve]	–
35	O=[N+]([O-])c1ccc(NC(=S)N2CCc3ccccc3C2)cc1	3.66 µM [rising, partial curve, poor fit]	–
36	C=CCc1cccc2cc(C(=O)NC(C)(C)C)c(=O)oc12	29.1 µM [falling, single point]	–
37	COc1cc(OC)c2c(=O)cc(-c3cccnc3)oc2c1	22.4 µM [rising, partial curve, poor fit]	20 µM [falling, partial curve]
38	CCOC(=O)N1CCN(c2nc(SC)nc3sc4c(c23)CC(C)(C)OC4)CC1	8.2 µM [rising, partial curve, poor fit]	–
39	Cc1ccc(-c2nnc(Nc3ccccc3)c3ccccc23)cc1S(=O)(=O)NCC1CCCO1 (stereo not given)	31.6 µM [falling, single point]	–
40	COc1ccc(NCC(=O)Nc2ccc(Cl)cc2C)c(OC)c1	18.4 µM [falling, single point]	–
41	CCOc1ccc2nc(N3CCOCC3)nc(C)c2c1	4.11 µM [rising, full curve, poor fit]	–
42	C=CCNC(=O)COc1ccc(Oc2ccccc2)cc1	35.5 µM [falling, single point]	–

Additional results.

Row | SMILES | AC50 [1] | AC50 [2]
43 | O=C(O)C(=O)/C(=C\c1cccc(Cl)c1)c1ccc2ccccc2n1 | 14.1 µM [falling, single point] | –
44 | NC(=O)C1(N2CCCCC2)CCN(Cc2ccccc2Cl)CC1 | 29.1 µM [falling, single point] | –
45 | O=C(NC(=S)Nc1ncc(Br)cc1Br)c1ccccc1 | 10 µM [falling, partial curve, poor fit] | –
46 | O=C(COC(=O)CNC(=O)c1cccc([N+](=O)[O-])c1)Nc1ccccc1OC(F)F | 7.31 µM [rising, partial curve] | –
47 | Cc1cccc(NC(=O)c2ccc3nccnc3c2)n1 | 35.5 µM [falling, single point] | –
48 | O=C(CSc1nnc(COc2ccc(Cl)cc2)o1)N1c2ccccc2CCc2ccccc21 | 7.08 µM [falling, partial curve, poor fit] | –
49 | COc1ccc(/C(N)=N/OC(=O)Cc2cccs2)cc1 | 29.1 µM [falling, single point] | –
50 | Cc1nc(N)c(Br)c(C)c1Br | 15.8 µM [falling, single point] | –
51 | CCN(CC(=O)Nc1ccc(OC)cc1)CC(=O)N1CC(=O)Nc2ccccc21 | 14.6 µM [rising, partial curve] | –
52 | CCN(C(=O)c1cnc(OC)cc1C(F)(F)F)c1ccc(Cl)cc1Cl | 12.6 µM [rising, partial curve, poor fit] | –
53 | Cc1ccc(S(=O)(=O)N2CCCC2CNC(=O)C(=O)NCc2cccs2)cc1 (stereo not given) | 29.1 µM [rising, single point] | –
54 | CCc1ccc(Nc2oc(C)cc(=O)c2C(C)=O)cc1 | 35.5 µM [rising, partial curve, poor fit] | –
55 | CCN(CC(=O)Nc1cc(Cl)ccc1C)C(=O)C1CCCCC1 | 0.708 µM [falling, full curve] | –
56 | O=C(Nc1ccc2c(c1)CCC2)c1cc(F)cc(F)c1 | 2.91 µM [rising, partial curve, poor fit] | –
57 | CCn1c(COc2ccccc2C)nnc1SCC(=O)CC(=O)Nc1ccccc1OC | 18.4 µM [falling, single point] | –
58 | O=C(NNC(=O)c1ccccc1C(=O)O)c1cc2ccccc2o1 | 22.4 µM [falling, single point] | –
59 | CCC(C)Cn1c(C)nc2ccccc21 (stereo not given) | 6.31 µM [falling, single point] | –
60 | O=C(Cn1nnc2c(cnn2-c2ccc(F)cc2)c1=O)c1ccccc1F | 0.291 µM [rising, full curve, poor fit] | –
61 | O=C(Nc1ccc2c(c1)OCO2)C1CCCN1C(=O)OCc1ccccc1 (stereo not given) | 10 µM [rising, partial curve, poor fit] | –

From PubChem BioAssay AID493014 (National Center for Advancing Translational Sciences (NCATS), 2011)
